# Reference: PubChem BioAssay AID2685 (National Center for Advancing Translational Sciences (NCATS), 2010)
# The other results are listed elsewhere or left out. These are further read-outs of the screen, such as a control signal, another cell line or another target. No call is given for them. Most of these compounds were active or inconclusive in the main read-out, so they are no random draw. Words in brackets tell the shape of the fitted curve; partial curves, single points and poor fits give uncertain potencies.
# Assay: qHTS Assay for Lipid Storage Modulators in Drosophila S3 Cells;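 as to cell number change: cells counted by Cell Tracker Red CMTPX staining in the red channel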
# Details: BODIPY lipid droplet fluorescence, 18-24 h; for cell number change: measured here: cell count max response, cells fed with added oleic acid
# Outline: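 Laser-scanning cytometry quantifies lipid droplet accumulation (500–530 nm total intensity; droplet/cell object ratio) in oleic acid-fed (400 uM added) Drosophila S3 cells treated with a concentration series. 20 uM Triacsin C defined 100% inhibition.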
# [1] = measured here: cell number channel AC50, cells fed with added oleic acid
# [2] = measured here: lipid fluorescence (Fed channel) AC50, cells fed with added oleic acid
SMILES,cell number change [%],AC50 [1],AC50 [2]
Cn1c(=O)cc(OCC(=O)NCCc2ccc(Cl)cc2)c2ccccc21,58.7,"9.2 µM [rising, partial curve, poor fit]","23.1 µM [rising, single point]"
Cc1cccc(NC(=O)CCn2c(=O)oc3ccccc32)c1,-5.88,–,–
Cc1cc(C)c(S(=O)(=O)N2CCN(CCO)CC2)c(C)c1,-64.1,"7.31 µM [falling, partial curve]","5.8 µM [falling, full curve]"
COC(=O)Nc1ccc(S(=O)(=O)N2CCCC(C(=O)NC3CCCCC3)C2)cc1 (stereo unspecified),–,–,"29.1 µM [rising, single point]"
CN(Cc1ccccc1)C(=O)CCn1c(=O)c2cccn2c2cccnc21,–,–,"29.1 µM [falling, single point]"
CC(=O)c1sc(=S)n(-c2ccc(Cl)cc2)c1C,18,–,"20.6 µM [rising, single point]"
O=[N+]([O-])c1ccc(N2CCCC2)cc1NC(c1ccccc1)c1ccccc1,–,–,"0.461 µM [rising, full curve, poor fit]"
COc1ccccc1CNC(=O)COC(=O)c1cccnc1SCC(=O)NCc1ccccc1OC,22.7,"3.26 µM [rising, full curve, poor fit]","2.59 µM [rising, single point]"
COC(=O)CCC(=O)OC1(C)C(=O)C2=CN(CCCOC(C)C)C(c3ccc(OC)cc3)=CC2=C(Br)C1=O (stereo unspecified),0.997,–,–
Cc1c(O)c(CN2CCCC2)cc2c3c(c(=O)oc12)CCC3,–,"5.8 µM [rising, single point]",–
Cc1cc(C)n(-c2nc3ccccc3c(=O)n2OCC#N)n1,-35.2,"0.00461 µM [falling, full curve, poor fit]","0.259 µM [falling, partial curve, poor fit]"
COc1ccc(OC)c(/C=C/C(=O)OCC(=O)NCc2cccs2)c1,3.11,–,"0.411 µM [rising, full curve, poor fit]"
O=C(CN(C(=O)c1csnn1)c1cccc2ccccc12)NCc1ccccc1,-3.81,–,–
COc1ccc2nc(NC(=O)Cn3cnc4c(=O)n(C)c(=O)n(C)c43)sc2c1,–,–,"0.58 µM [falling, single point]"
N#Cc1c2c(c(Nc3ccccc3)n3c1nc1ccccc13)CCC2,-91,"23.1 µM [falling, partial curve]","20.6 µM [falling, partial curve, poor fit]"
COc1cccc(NC(=O)C2C3C=CC(C3)C2C(=O)O)c1 (stereo unspecified),15.8,"0.00461 µM [rising, full curve, poor fit]","29.1 µM [falling, single point]"
COc1ccc(/C=C/C(=O)NC2CCCCCCC2)cc1S(=O)(=O)N1CCOCC1,-1.08,–,–
Cc1ccc(SCC(=O)N=C2NC(=O)CS2)cc1,-3.17,–,"3.66 µM [falling, single point]"
Cc1ccc(C)c(NC(=O)CN(C)C(=O)c2ccc(Cl)nc2)c1,17.1,–,–

# Filtered by structure, those above with a carbonyl joined to an NH by a bond outside any ring.
SMILES,cell number change [%],AC50 [1],AC50 [2]
Cn1c(=O)cc(OCC(=O)NCCc2ccc(Cl)cc2)c2ccccc21,58.7,"9.2 µM [rising, partial curve, poor fit]","23.1 µM [rising, single point]"
Cc1cccc(NC(=O)CCn2c(=O)oc3ccccc32)c1,-5.88,–,–
COC(=O)Nc1ccc(S(=O)(=O)N2CCCC(C(=O)NC3CCCCC3)C2)cc1 (stereo unspecified),–,–,"29.1 µM [rising, single point]"
COc1ccccc1CNC(=O)COC(=O)c1cccnc1SCC(=O)NCc1ccccc1OC,22.7,"3.26 µM [rising, full curve, poor fit]","2.59 µM [rising, single point]"
COc1ccc(OC)c(/C=C/C(=O)OCC(=O)NCc2cccs2)c1,3.11,–,"0.411 µM [rising, full curve, poor fit]"
O=C(CN(C(=O)c1csnn1)c1cccc2ccccc12)NCc1ccccc1,-3.81,–,–
COc1ccc2nc(NC(=O)Cn3cnc4c(=O)n(C)c(=O)n(C)c43)sc2c1,–,–,"0.58 µM [falling, single point]"
COc1cccc(NC(=O)C2C3C=CC(C3)C2C(=O)O)c1 (stereo unspecified),15.8,"0.00461 µM [rising, full curve, poor fit]","29.1 µM [falling, single point]"
COc1ccc(/C=C/C(=O)NC2CCCCCCC2)cc1S(=O)(=O)N1CCOCC1,-1.08,–,–
Cc1ccc(C)c(NC(=O)CN(C)C(=O)c2ccc(Cl)nc2)c1,17.1,–,–

# Look-ups from above:
# In AC50 [1], Cn1c(=O)cc(OCC(=O)NCCc2ccc(Cl)cc2)c2ccccc21 is listed with 9.2 µM [rising, partial curve, poor fit]
# In AC50 [2], COc1ccc(OC)c(/C=C/C(=O)OCC(=O)NCc2cccs2)c1 is listed with 0.411 µM [rising, full curve, poor fit]

# The list goes on:

SMILES,cell number change [%],AC50 [1],AC50 [2]
Clc1cccc(-c2nnc(-c3ccno3)o2)c1,9.51,–,"0.291 µM [rising, full curve, poor fit]"
COc1ccc(C2=CC(c3ccc(OC)c(OC)c3)NC(=S)N2)cc1 (stereo unspecified),-6.29,–,"0.326 µM [rising, partial curve]"
CCOC(=O)C1=C(COC(=O)CSc2ccc(C)cc2)NC(=O)NC1C (stereo unspecified),-0.778,–,–
Cc1cc(C)n2ncc(C(=O)NCCc3ccccc3)c2n1,77.7,"14.6 µM [rising, partial curve, poor fit]","0.58 µM [rising, partial curve, poor fit]"
O=C(COC(=O)c1ccccc1NC(=O)c1ccco1)NC1CCCCC1,46.8,–,"0.461 µM [rising, full curve]"
Cc1oc(-c2ccccc2)cc1C(=O)Nc1ccccc1,-4.06,–,"2.59 µM [rising, partial curve]"
O=C1C(Cl)=C(N2CCCCCC2)C(=O)N1c1ccc(Br)cc1,-0.739,–,"16.4 µM [falling, single point]"
CC(C)CN(CCCNC(=O)CN1C(=O)COc2ccc(S(=O)(=O)N3CCOCC3)cc21)CC(C)C,2.65,–,"2.31 µM [falling, partial curve]"
Cc1cc(C(=O)NC(C)C2CCCO2)no1 (stereo unspecified),-43.6,"29.1 µM [falling, single point]","29.1 µM [falling, single point]"
CCCCC(=O)NC1=C(C(=O)OC)SCC1,-21,–,–
CC(=O)c1ccc(NC(=O)c2cnn3ccccc23)cc1,–,–,"0.92 µM [rising, full curve, poor fit]"
O=C1CCC(=O)N1CC(=O)N1CCCc2ccccc21,-21.9,–,"0.206 µM [falling, single point]"
CCOC1=C/C(=C/c2c(N)n3oc(C)cc3nc2=O)C=CC1=O,-57,"25.9 µM [falling, single point]","25.9 µM [falling, partial curve, poor fit]"
O=C1CCC([N+](=O)[O-])C(c2ccccc2Br)N1 (stereo unspecified),-8.84,–,"3.26 µM [rising, full curve]"
COc1ccc(OC)c(NC(=O)c2ccccc2NC(=O)c2ccco2)c1,-2.74,–,"4.11 µM [rising, partial curve, poor fit]"
Cc1c(C(=O)N2CCCCC2CCN2CCCC2=O)oc2c(F)cccc12 (stereo unspecified),40.5,"29.1 µM [rising, single point]",–
Nc1nc(SCC(=O)NCc2ccccc2Cl)[nH]c(=O)c1NC(=O)c1ccccc1F,8.45,–,"3.26 µM [rising, partial curve, poor fit]"
COc1ccc(-n2cnnc2)cc1,18.1,–,–
COC(=O)NC(NC(=S)Nc1cccc(C)c1)C(Cl)(Cl)Cl (stereo unspecified),6.68,–,"6.51 µM [falling, single point]"

SMILES,cell number change [%],AC50 [1],AC50 [2]
COc1ccc(Nc2nnc(SCC(=O)c3cc(C)n(CC4CCCO4)c3C)s2)cc1 (stereo unspecified),11.7,"2.06 µM [rising, partial curve]","6.51 µM [rising, partial curve, poor fit]"
NS(=O)(=O)c1ccc(-c2ccc(/C=N/Nc3ccc(C(=O)O)cc3)o2)cc1,37.5,"2.06 µM [rising, single point]",–
CCOC(=O)c1oc2c(C)c(O)ccc2c(=O)c1-c1nncn1-c1ccccc1,-5.5,–,"29.1 µM [rising, single point]"
O=C(Cc1ccc(Cl)cc1)Nc1ccccc1C(=O)N1CCCCC1,-18.5,"7.31 µM [falling, partial curve, poor fit]",–
COC(=O)c1c(C)n(-c2ccc(C)cc2)c2ccc(O)cc12,–,"6.51 µM [falling, single point]","6.51 µM [falling, single point]"
Cc1cccc(C)c1Nc1nnc(SCc2cc([N+](=O)[O-])cc3c2OCOC3)s1,89.5,"5.8 µM [rising, full curve]","6.51 µM [rising, single point]"
Cc1c(C(=O)N2CCN(Cc3cccs3)CC2)oc2ccccc12,-26.1,–,"3.26 µM [falling, partial curve]"
CCOc1cc2c(Cl)ncnc2c(OCC)c1OCC,-7.62,"6.51 µM [falling, single point]","6.51 µM [falling, single point]"
C/C(CC(=O)Nc1cc(Cl)ccc1Cl)=N\NC(=O)COc1cccc(C)c1,10.5,–,"15.8 µM [falling, single point]"
CCc1ccc2[nH]c(=O)c(CN(Cc3ccco3)S(=O)(=O)c3ccc4c(c3)OCCO4)cc2c1,0.55,–,"6.51 µM [rising, partial curve]"
Clc1ccccc1C(c1ccccc1)(c1ccccc1)n1ccnc1,40.7,"29.1 µM [rising, single point]","29.1 µM [rising, single point]"
Cc1nc2ccccn2c1/C(O)=C1\C(=O)C(=O)N(CCN2CCOCC2)C1c1ccncc1 (stereo unspecified),-31.7,"0.00461 µM [falling, full curve, poor fit]","0.00461 µM [falling, full curve, poor fit]"
Cc1cccc2cc(C(c3nnnn3Cc3ccc4c(c3)OCO4)N3CCCC3)c(=O)[nH]c12 (stereo unspecified),51,"0.366 µM [rising, full curve]","0.58 µM [rising, full curve]"
Cc1cccc(Nc2nnc(-c3ccc(N4CCOCC4)c([N+](=O)[O-])c3)c3ccccc23)c1,-32.1,"1.03 µM [falling, full curve, poor fit]","0.116 µM [falling, full curve]"
CN(C)CCNC(=O)COc1ccc(Cl)cc1Cl,-28.9,"0.0058 µM [falling, full curve, poor fit]",–
COc1ccc(OC)c(/C=C/c2nc3ccccc3[nH]c2=O)c1,381,"18.4 µM [rising, partial curve]",–
Cc1cccc(C)c1OCc1cc(C(=O)N2CCN3CCCC3C2)no1 (stereo unspecified),9.63,–,"6.51 µM [rising, single point]"
Cc1cc(C)cc(Oc2ccc(NC(=O)C3CC=CCC3C(=O)O)cc2)c1 (stereo unspecified),10.2,–,"29.1 µM [falling, partial curve, poor fit]"
CN(C)CCN(C(=O)c1ccco1)c1nc2cc3c(cc2s1)OCCO3,9.27,–,"29.1 µM [rising, single point]"
